# Results: patent publication US12551582 (dated 2026)
# Experiment: peptide synthesis
# Conditions: coupling step
substance,measurement,value
"Tert-butyl (2-((2-(((2S,3S)-1-(((3S,6S)-6-(((1H-1,2,3-triazol-4-yl)methyl)carbamoyl)-4-oxo-1,2,3,4,6,7-hexahydroazepino[3,2,1-hi]indol-3-yl)amino)-3-methyl-1-oxopentan-2-yl)amino)-2-oxoethyl)amino)-2-oxoethyl)carbamate (20-h)",step yield,77%
